Source: PubChem BioAssay AID720697 (Broad Institute, 2013)
This list was built around the results that the source calls inconclusive (neither active nor inactive); the mix of calls is not that of the screen. Activity calls are given as the source filed them.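 Rule for the calls: active = signal loss with fitted half-maximal concentration at or below twice the top valid tested dose in every test run; inconclusive = runs disagree, flat 30 to 70% signal loss, or poor fit; inactive = all runs flat, opposite direction, or potency beyond limit.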

test: general mammalian cell viability loss – inhibitor set, cherry-pick, set 2, cytotoxicity control for miR-122 modulator project, dose response (AID 720697); conditions: HEK293T viability, CellTiter-Glo luminescence, 48 h; at 26 µM (top of the series) unless noted;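 note: 0% = median of neutral control wells and -100% = MG132 positive control wells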

SMILES | activity change, negative = cytotoxicity
O=C(N/N=C/c1ccco1)c1cccc(N2CCCC2=O)c1 | inactive: 34.1%
COc1ccc(CCNC(=O)c2c(C)cc(=O)oc2C)cc1OC | inactive: -9.1%
C[C@@H]1CN([C@@H](C)CO)C(=O)Cc2cc(NC(=O)Nc3ccc(C(F)(F)F)cc3)ccc2O[C@H]1CN(C)CC1CCCCC1 | inconclusive: -145%
Cc1cc(C)cc(NC(=O)Nc2ccc3c(c2)C(=O)N(C)[C@@H]2CC[C@H](CC(=O)O)O[C@@H]2CO3)c1 | inactive: -11.5%
Cc1cc(C)nc(NS(=O)(=O)c2ccc(NC(=S)NC(=O)C3CCCC3)cc2)n1 | inactive: -3.73%
CCCCC(=O)OCC(=O)c1[nH]c(C)c(C(=O)OCC)c1C | inactive: 58.2%
CCNC(=O)C[C@@H]1CC[C@@H]2[C@@H](COc3ccc(NC(=O)C4CCCCC4)cc3C(=O)N2C)O1 | inconclusive: -51.3% [at 23.5 µM]
C/C=C/c1ccc([C@H]2[C@H](CO)N(C(C)=O)[C@H]2CN(C)C(=O)c2ccccn2)cc1 | inconclusive: -31.8%
COc1ccc(S(=O)(=O)Nc2ccc3c(c2)CC(=O)N([C@@H](C)CO)C[C@@H](C)[C@H](CN(C)Cc2ccc(C(F)(F)F)cc2)O3)cc1 | inactive: -44.1%
Cc1c(CC(=O)NCCCC(=O)O)c(=O)oc2cc3occ(-c4ccccc4)c3cc12 | inactive: 75.4%
COc1cccc(S(=O)(=O)N(C)C[C@@H]2Oc3cc(C4=CCCCC4)ccc3S(=O)(=O)N([C@H](C)CO)C[C@@H]2C)c1 | inconclusive: 8.79%
COc1ccc(C#Cc2ccc([C@H]3[C@H](CO)N4CCCCN(C(=O)Nc5ccccc5)C[C@@H]34)cc2)cc1 | inconclusive: -154%
CC(C)CC#Cc1ccc2c(c1)O[C@H](CN(C)C(=O)c1ccccc1)[C@H](C)CN([C@H](C)CO)S2(=O)=O | inconclusive: -83.2%
Cc1cc(C)cc(OCC(O)CN2CCC(CN3C(=O)c4cccc5cccc(c45)C3=O)CC2)c1 (stereo not given) | inconclusive: -49.2% [at 6 µM]
Cc1cc(CN(C)C(=O)c2cc(COc3ccc4ncccc4c3)on2)on1 | inactive: 15.5%
COc1cccc(NC(=O)N(C)C[C@@H]2Oc3ncc(C#Cc4ccncc4)cc3C(=O)N([C@@H](C)CO)C[C@H]2C)c1 | inconclusive: -39.6%
CCNC(=O)C[C@@H]1CC[C@@H]2[C@@H](COc3ccc(NC(=O)c4ccccc4)cc3C(=O)N2C)O1 | inactive: 80.6% [at 23.5 µM]
COc1ccc(CN(C)C[C@@H]2OCCCC[C@H](C)Oc3ccc(NC(=O)Nc4ccc(C(F)(F)F)cc4)cc3C(=O)N([C@H](C)CO)C[C@H]2C)cc1 | inconclusive: -42.2%
CN1C(=O)c2cc(NC(=O)c3cccc(F)c3)ccc2OC[C@H]2O[C@H](CC(=O)O)CC[C@@H]21 | inconclusive: 60.7%
CN1C(=O)c2cc(NC(=O)Nc3cccc(Cl)c3)ccc2OC[C@H]2O[C@H](CC(=O)NCCc3ccncc3)CC[C@H]21 | inconclusive: -30.8%
C/C=C/c1ccc([C@@H]2[C@@H](CO)N(S(C)(=O)=O)[C@H]2CN(C)C(=O)CC)cc1 | inactive: -20.3%
COc1cccc(CNC(=O)C[C@@H]2CC[C@H]3[C@H](COc4ccc(NS(=O)(=O)c5ccccc5F)cc4C(=O)N3C)O2)c1 | inactive: 87.4%
COC(=O)C[C@@H]1CC[C@@H]2[C@H](COc3ccc(NC(=O)Nc4cccc(F)c4)cc3C(=O)N2C)O1 | inconclusive: -44.9%
CC(C)CC#Cc1ccc([C@H]2[C@@H](CO)N3CCCCN(S(=O)(=O)Cc4ccccc4)C[C@H]23)cc1 | inactive: -17.9%
C=CCc1c(OC)ccc2ccc(=O)oc12 | inactive: -1.92% [at 6 µM]

Nothing new here: an excerpt of the list.
SMILES | activity change, negative = cytotoxicity
O=C(N/N=C/c1ccco1)c1cccc(N2CCCC2=O)c1 | inactive: 34.1%
COc1ccc(CCNC(=O)c2c(C)cc(=O)oc2C)cc1OC | inactive: -9.1%
